{"source": "PubChem BioAssay AID1259308 (NCATS, 2017)", "purpose": "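Genes whose loss raises luciferase production in HEK293 cells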 (primary screen)", "cells": "human HEK293 embryonic kidney cells stably expressing firefly luciferase (HEK-CMV-Luc2-Hygro)", "knock-down reagent": "single siRNA against human genes, 0.8 pmol siRNA per well", "timing": "72 h", "measured": "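Reporter luminescence and viable-cell signal on separate replicate plates, given as percent of non-targeting control and median/MAD z-scores, plus per-cell luciferase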", "reading the numbers": "total luciferase, z-score: higher = more reporter protein produced", "hit rule": "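Active when the median/MAD z-score for overall luciferase is greater than 3; a gene was taken forward for validation with new siRNAs if at least two of its three siRNAs passed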", "meaning of the calls": "active = raised luciferase; inactive = no rise", "note": "Here is an unselected part of about 59,000 reagents. Of all reagents, about 1,510 (2.6%) were called active. 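Calls use total luciferase alone and ignore viability, so some active siRNAs may act by altering cell number.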 The numbers tell different reagents against one gene apart. Not all columns of the deposit are shown."}
{"gene symbol": "MPLKIP", "reagent": 1, "total luciferase, z-score": -1.34, "Call": "inactive"}
{"gene symbol": "MPLKIP", "reagent": 2, "total luciferase, z-score": 1.92, "Call": "inactive"}
{"gene symbol": "MPLKIP", "reagent": 3, "total luciferase, z-score": -0.834, "Call": "inactive"}
{"gene symbol": "ACTR2", "reagent": 1, "total luciferase, z-score": -0.273, "Call": "inactive"}
{"gene symbol": "ACTR2", "reagent": 2, "total luciferase, z-score": 0.258, "Call": "inactive"}
{"gene symbol": "ACTR2", "reagent": 3, "total luciferase, z-score": 0.467, "Call": "inactive"}
{"gene symbol": "AQP3", "reagent": 1, "total luciferase, z-score": 0.746, "Call": "inactive"}
{"gene symbol": "AQP3", "reagent": 2, "total luciferase, z-score": -0.467, "Call": "inactive"}
{"gene symbol": "AQP3", "reagent": 3, "total luciferase, z-score": 2.94, "Call": "inactive"}
{"gene symbol": "EIF2S2P7", "reagent": 1, "total luciferase, z-score": 2.05, "Call": "inactive"}
{"gene symbol": "EIF2S2P7", "reagent": 2, "total luciferase, z-score": 0.334, "Call": "inactive"}
{"gene symbol": "EIF2S2P7", "reagent": 3, "total luciferase, z-score": -0.885, "Call": "inactive"}
{"gene symbol": "PCMTD2", "reagent": 1, "total luciferase, z-score": 0.561, "Call": "inactive"}
{"gene symbol": "PCMTD2", "reagent": 2, "total luciferase, z-score": -0.136, "Call": "inactive"}
{"gene symbol": "PCMTD2", "reagent": 3, "total luciferase, z-score": 1.81, "Call": "inactive"}
{"gene symbol": "PCDHGA7", "reagent": 1, "total luciferase, z-score": 0.507, "Call": "inactive"}
{"gene symbol": "PCDHGA7", "reagent": 2, "total luciferase, z-score": -0.535, "Call": "inactive"}
{"gene symbol": "PCDHGA7", "reagent": 3, "total luciferase, z-score": -0.539, "Call": "inactive"}
{"gene symbol": "RBM48", "reagent": 1, "total luciferase, z-score": -0.492, "Call": "inactive"}
{"gene symbol": "RBM48", "reagent": 2, "total luciferase, z-score": 0.509, "Call": "inactive"}
{"gene symbol": "RBM48", "reagent": 3, "total luciferase, z-score": 0.837, "Call": "inactive"}
{"gene symbol": "LRCH1", "reagent": 1, "total luciferase, z-score": -0.0706, "Call": "inactive"}
{"gene symbol": "LRCH1", "reagent": 2, "total luciferase, z-score": 0.985, "Call": "inactive"}
{"gene symbol": "LRCH1", "reagent": 3, "total luciferase, z-score": 0.0772, "Call": "inactive"}
{"gene symbol": "CACNA1C", "reagent": 1, "total luciferase, z-score": -0.522, "Call": "inactive"}
{"gene symbol": "CACNA1C", "reagent": 2, "total luciferase, z-score": -1.06, "Call": "inactive"}
{"gene symbol": "CACNA1C", "reagent": 3, "total luciferase, z-score": -1.28, "Call": "inactive"}
{"gene symbol": "A2ML1", "reagent": 1, "total luciferase, z-score": -0.0681, "Call": "inactive"}
{"gene symbol": "A2ML1", "reagent": 2, "total luciferase, z-score": -0.341, "Call": "inactive"}
{"gene symbol": "A2ML1", "reagent": 3, "total luciferase, z-score": 1.21, "Call": "inactive"}
{"gene symbol": "SCRT2", "reagent": 1, "total luciferase, z-score": -0.14, "Call": "inactive"}
{"gene symbol": "SCRT2", "reagent": 2, "total luciferase, z-score": 2.35, "Call": "inactive"}
{"gene symbol": "SCRT2", "reagent": 3, "total luciferase, z-score": 1.69, "Call": "inactive"}

3 entries from above in another layout:
gene symbol	reagent	total luciferase, z-score	Call
ACTR2	3	0.467	inactive
AQP3	1	0.746	inactive
AQP3	2	-0.467	inactive
